In PMC10619556, “Comprehensive Evaluation System for Post-Metabolic Activity of Potential Thyroid-Disrupting Chemicals” (Journal of Microbiology and Biotechnology, 2023):
Where a name gives a salt, the structure may show the parent alone.

Experiment: In vitro metabolic reaction using rat liver S9 fraction with LC-MS / GC-MS metabolic profiling
Settings: rat liver S9, phase I+II reaction vs inactivated S9 control; BDE28 and 4,4'-DIDBP by GC-MS, others by LC-MS

SMILES: CCCCc1oc2ccccc2c1C(=O)c1cc(I)c(OCCN(CC)CC)c(I)c1 [Amiodarone, amiodarone hydrochloride]
- Metabollic rate: 70%
